These are yes or no findings as the source states them, for the method shown. Binding seen in cells or lysates may run through a third protein. Some results given as binding are weak or reduced against the parent protein; the word gives no strength. For part of these data: Sequences can lack the tags named with a protein.
Key:
flag-HDAC1 = flag-HDAC1 (UniProt Q13547); assay: co-IP; HEK293T cells transfected with vector or flag-HDAC3 / flag-HDAC1 plasmid; lysis in 50 mM Tris-HCl pH 7.4, 0.8% NP40, 10% glycerol, 150 mM NaCl at 4°C; anti-Flag M2 magnetic beads, 60 min, five washes; Western blot for menin
flag-HDAC3 = flag-HDAC3 (UniProt O15379); assay: as above
flag-JunD = molecular target: T1, flag-JunD (UniProt P17535); assay: co-IP; HEK293T cells transfected with vector or flag-JunD plasmid, treated with DMSO, MI-503 (30, 100, 300 nM) or MI-463 (30, 100, 300 nM); lysis in 50 mM Tris-HCl pH 7.4, 0.8% NP40, 10% glycerol, 150 mM NaCl at 4°C; anti-Flag M2 magnetic beads; Western blot
T1 sequence: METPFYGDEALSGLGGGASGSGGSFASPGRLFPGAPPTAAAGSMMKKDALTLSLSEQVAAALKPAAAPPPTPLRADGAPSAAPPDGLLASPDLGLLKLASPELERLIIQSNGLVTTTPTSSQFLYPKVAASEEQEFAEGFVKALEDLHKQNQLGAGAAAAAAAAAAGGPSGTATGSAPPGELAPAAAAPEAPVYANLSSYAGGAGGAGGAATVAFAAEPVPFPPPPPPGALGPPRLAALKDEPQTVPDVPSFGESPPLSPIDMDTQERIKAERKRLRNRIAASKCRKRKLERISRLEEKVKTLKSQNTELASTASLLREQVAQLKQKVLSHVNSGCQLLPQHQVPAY

The chains behind the UniProt entries cited, without tags or fusion partners.
UniProt Q13547: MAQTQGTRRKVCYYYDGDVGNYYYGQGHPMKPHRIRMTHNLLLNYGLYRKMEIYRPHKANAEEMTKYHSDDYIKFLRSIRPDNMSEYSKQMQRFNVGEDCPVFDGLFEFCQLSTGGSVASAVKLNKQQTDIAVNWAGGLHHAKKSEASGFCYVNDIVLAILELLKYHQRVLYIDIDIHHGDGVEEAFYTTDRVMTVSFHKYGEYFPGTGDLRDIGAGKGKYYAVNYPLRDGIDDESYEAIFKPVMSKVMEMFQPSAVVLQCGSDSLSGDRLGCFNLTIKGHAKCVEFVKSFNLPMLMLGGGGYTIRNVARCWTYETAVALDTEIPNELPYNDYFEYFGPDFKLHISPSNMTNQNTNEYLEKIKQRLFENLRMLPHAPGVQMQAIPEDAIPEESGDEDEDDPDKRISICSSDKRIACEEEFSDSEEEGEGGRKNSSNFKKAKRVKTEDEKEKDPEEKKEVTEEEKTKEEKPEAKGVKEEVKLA
UniProt O15379: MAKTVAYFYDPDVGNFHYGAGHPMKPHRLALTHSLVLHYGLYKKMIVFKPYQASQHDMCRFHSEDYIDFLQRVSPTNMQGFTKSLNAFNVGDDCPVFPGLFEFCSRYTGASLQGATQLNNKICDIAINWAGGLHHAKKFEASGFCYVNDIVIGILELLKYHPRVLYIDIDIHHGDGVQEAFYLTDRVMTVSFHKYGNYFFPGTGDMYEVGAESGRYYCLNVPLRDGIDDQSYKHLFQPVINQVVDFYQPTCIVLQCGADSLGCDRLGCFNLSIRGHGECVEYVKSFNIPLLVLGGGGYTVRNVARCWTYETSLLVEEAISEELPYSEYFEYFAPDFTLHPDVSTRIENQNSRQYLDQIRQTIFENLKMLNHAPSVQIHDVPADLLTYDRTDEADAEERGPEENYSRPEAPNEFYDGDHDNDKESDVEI

Measured: binding

B1: menin (protein, UniProt O00255 1-610)
chain: MGLKAAQKTLFPLRSIDDVVRLFAAELGREEPDLVLLSLVLGFVEHFLAVNRVIPTNVPELTFQPSPAPDPPGGLTYFPVADLSIIAALYARFTAQIRGAVDLSLYPREGGVSSRELVKKVSDVIWNSLSRSYFKDRAHIQSLFSFITGTKLDSSGVAFAVVGACQALGLRDVHLALSEDHAWVVFGPNGEQTAEVTWHGKGNEDRRGQTVNAGVAERSWLYLKGSYMRCDRKMEVAFMVCAINPSIDLHTDSLELLQLQQKLLWLLYDLGHLERYPMALGNLADLEELEPTPGRPDPLTLYHKGIASAKTYYRDEHIYPYMYLAGYHCRNRNVREALQAWADTATVIQDYNYCREDEEIYKEFFEVANDVIPNLLKEAASLLEAGEERPGEQSQGTQSQGSALQDPECFAHLLRFYDGICKWEEGSPTPVLHVGWATFLVQSLGRFEGQVRQKVRIVSREAEAAEAEEPWGEEAREGRRRGPRRESKPEEPPPPKKPALDKGLGTGQGAVSGPPRKPPGTVAGTARGPEGGSTAQVPAPTASPPPEGPVLTFQSEKMKGMKELLVATKINSSAIKLQLTAQSQVQMKKQKVSTPSDYTLSFLKRQRKGL
binds: all assays above

Reference: paper PMC8103087
